# Experimental data from the supplement of paper PMC8728848.
# The other results are listed elsewhere or left out.
# Tests used:
# Experiment in all cases: glycan array binding signal (z-score within array); higher = stronger binding
# Details in all cases: glycan notation: IUPAC condensed, linker removed; mutation: D21K
# [1] = molecular target: Kdn(a2-3)Gal(b1-3)GlcNAc
# Outline: (§1)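 Glycan array binding is given as a within-array Z-score, which can be read as non-binding when negative. The arrays, 3228 of them, came from the Consortium for Functional Glycomics database and were retained only where the protein sequence was available. Z-scores were averaged across arrays of the same protein sequence at different concentrations or buffers and across linkers.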
# [2] = molecular target: Kdn(a2-3)Gal(b1-4)Glc
# Outline: as §1
# [3] = molecular target: Kdn(a2-3)Gal(b1-4)GlcNAc
# Outline: as §1
# [4] = molecular target: Kdn(a2-3)Gal(b1-4)[Fuc(a1-3)]GlcNAc
# Outline: as §1
# [5] = molecular target: Kdn(a2-6)Gal(b1-4)GlcNAc
# Outline: as §1
# [6] = molecular target: Man(a1-2)Man(a1-2)Man(a1-3)Man
# Outline: as §1
# [7] = molecular target: Man(a1-2)Man(a1-2)Man(a1-6)[Man(a1-3)]Man
# Outline: as §1
# [8] = molecular target: Man(a1-2)Man(a1-3)Man
# Outline: as §1
# [9] = molecular target: Man(a1-2)Man(a1-3)[Man(a1-2)Man(a1-6)]Man
# Outline: as §1
# [10] = molecular target: Man(a1-2)Man(a1-3)[Man(a1-2)Man(a1-6)]Man(a1-6)[Man(a1-2)Man(a1-2)Man(a1-3)]Man
# Outline: as §1
# [11] = molecular target: Man(a1-2)Man(a1-3)[Man(a1-2)Man(a1-6)]Man(a1-6)[Man(a1-2)Man(a1-2)Man(a1-3)]Man(b1-4)GlcNAc(b1-4)GlcNAc
# Outline: as §1
# [12] = molecular target: Man(a1-2)Man(a1-3)[Man(a1-6)]Man(a1-6)[Man(a1-2)Man(a1-3)]Man(b1-4)GlcNAc(b1-4)GlcNAc
# Outline: as §1
# [13] = molecular target: Man(a1-2)Man(a1-6)[Man(a1-3)]Man(a1-6)[Man(a1-2)Man(a1-2)Man(a1-3)]Man
# Outline: as §1
# [14] = molecular target: Man(a1-2)Man(a1-6)[Man(a1-3)]Man(a1-6)[Man(a1-2)Man(a1-2)Man(a1-3)]Man(b1-4)GlcNAc(b1-4)GlcNAc
# Outline: as §1
# [15] = molecular target: Man(a1-3)[Man(a1-6)]Man
# Outline: as §1
# [16] = molecular target: Man(a1-3)[Man(a1-6)]Man(a1-6)[Man(a1-2)Man(a1-3)]Man(b1-4)GlcNAc(b1-4)GlcNAc
# Outline: as §1
# [17] = molecular target: Man(a1-3)[Man(a1-6)]Man(a1-6)[Man(a1-3)]Man
# Outline: as §1
# [18] = molecular target: Man(a1-3)[Man(a1-6)]Man(a1-6)[Man(a1-3)]Man(b1-4)GlcNAc(b1-4)GlcNAc
# Outline: as §1
# [19] = molecular target: Man(a1-3)[Man(a1-6)]Man(b1-4)GlcNAc(b1-4)GlcNAc
# Outline: as §1
# [20] = molecular target: Man(a1-3)[Man(a1-6)]Man(b1-4)GlcNAc(b1-4)[Fuc(a1-6)]GlcNAc
# Outline: as §1
# [21] = molecular target: Man(a1-6)Man
# Outline: as §1
# [22] = molecular target: Man(b1-4)GlcNAc
# Outline: as §1
# [23] = molecular target: MurNAc(b1-4)GlcNAc
# Outline: as §1
# [24] = molecular target: Neu5Ac(a2-3)Gal
# Outline: as §1
# [25] = molecular target: Neu5Ac(a2-3)Gal(b1-3)GalNAc
# Outline: as §1
# [26] = molecular target: Neu5Ac(a2-3)Gal(b1-3)GalNAc(b1-3)Gal(a1-4)Gal(b1-4)Glc
# Outline: as §1
# [27] = molecular target: Neu5Ac(a2-3)Gal(b1-3)GalNAc(b1-4)Gal(b1-4)Glc
# Outline: as §1
# [28] = molecular target: Neu5Ac(a2-3)Gal(b1-3)GalNAc(b1-4)[Neu5Ac(a2-3)]Gal(b1-4)Glc
# Outline: as §1
# [29] = molecular target: Neu5Ac(a2-3)Gal(b1-3)GalNAc(b1-4)[Neu5Ac(a2-8)Neu5Ac(a2-3)]Gal(b1-4)Glc
# Outline: as §1
# [30] = molecular target: Neu5Ac(a2-3)Gal(b1-3)GalNAc6S
# Outline: as §1
# [31] = molecular target: Neu5Ac(a2-3)Gal(b1-3)GlcNAc
# Outline: as §1
# [32] = molecular target: Neu5Ac(a2-3)Gal(b1-3)GlcNAc(b1-2)Man
# Outline: as §1
# [33] = molecular target: Neu5Ac(a2-3)Gal(b1-3)GlcNAc(b1-2)Man(a1-3)[GlcNAc(b1-4)][Neu5Ac(a2-3)Gal(b1-3)GlcNAc(b1-2)Man(a1-6)]Man(b1-4)GlcNAc(b1-4)GlcNAc
# Outline: as §1
# [34] = molecular target: Neu5Ac(a2-3)Gal(b1-3)GlcNAc(b1-2)Man(a1-3)[Neu5Ac(a2-3)Gal(b1-3)GlcNAc(b1-2)Man(a1-6)]Man(b1-4)GlcNAc(b1-4)GlcNAc
# Outline: as §1
# [35] = molecular target: Neu5Ac(a2-3)Gal(b1-3)GlcNAc(b1-2)[Neu5Ac(a2-3)Gal(b1-3)GlcNAc(b1-4)]Man(a1-6)[Neu5Ac(a2-3)Gal(b1-3)GlcNAc(b1-2)Man(a1-3)]Man(b1-4)GlcNAc(b1-4)GlcNAc
# Outline: as §1
# [36] = molecular target: Neu5Ac(a2-3)Gal(b1-3)GlcNAc(b1-3)Gal(b1-3)GlcNAc
# Outline: as §1
# [37] = molecular target: Neu5Ac(a2-3)Gal(b1-3)GlcNAc(b1-3)Gal(b1-4)GlcNAc
# Outline: as §1
# [38] = molecular target: Neu5Ac(a2-3)Gal(b1-3)GlcNAc(b1-3)GalNAc
# Outline: as §1
# [39] = molecular target: Neu5Ac(a2-3)Gal(b1-3)GlcNAc(b1-6)GalNAc
# Outline: as §1
# [40] = molecular target: Neu5Ac(a2-3)Gal(b1-3)GlcNAc6S
# Outline: as §1
# [41] = molecular target: Neu5Ac(a2-3)Gal(b1-3)[Fuc(a1-4)]GlcNAc
# Outline: as §1
# [42] = molecular target: Neu5Ac(a2-3)Gal(b1-3)[Fuc(a1-4)]GlcNAc(b1-3)Gal(b1-3)[Fuc(a1-4)]GlcNAc
# Outline: as §1
# [43] = molecular target: Neu5Ac(a2-3)Gal(b1-3)[Fuc(a1-4)]GlcNAc(b1-3)Gal(b1-4)[Fuc(a1-3)]GlcNAc
# Outline: as §1
# [44] = molecular target: Neu5Ac(a2-3)Gal(b1-3)[GlcNAc(b1-6)]GalNAc
# Outline: as §1
# [45] = molecular target: Neu5Ac(a2-3)Gal(b1-3)[Neu5Ac(a2-6)]GalNAc
# Outline: as §1
# [46] = molecular target: Neu5Ac(a2-3)Gal(b1-3)[Neu5Ac(a2-6)]GlcNAc(b1-3)[Fuc(a1-3)[Gal(b1-4)]GlcNAc(b1-6)]Gal(b1-4)Glc
# Outline: as §1
# [47] = molecular target: Neu5Ac(a2-3)Gal(b1-3)]Neu5Ac(a2-3)Gal(b1-4)]GlcNAc
# Outline: as §1
# [48] = molecular target: Neu5Ac(a2-3)Gal(b1-4)Glc
# Outline: as §1
# [49] = molecular target: Neu5Ac(a2-3)Gal(b1-4)GlcNAc
# Outline: as §1
# [50] = molecular target: Neu5Ac(a2-3)Gal(b1-4)GlcNAc(b1-2)Man
# Outline: as §1
# [51] = molecular target: Neu5Ac(a2-3)Gal(b1-4)GlcNAc(b1-2)Man(a1-3)[GlcNAc(b1-4)][Neu5Ac(a2-3)Gal(b1-4)GlcNAc(b1-2)Man(a1-6)]Man(b1-4)GlcNAc(b1-4)GlcNAc
# Outline: as §1
# [52] = molecular target: Neu5Ac(a2-3)Gal(b1-4)GlcNAc(b1-2)Man(a1-3)[Neu5Ac(a2-3)Gal(b1-4)GlcNAc(b1-2)Man(a1-6)]Man(b1-4)GlcNAc(b1-4)GlcNAc
# Outline: as §1
# [53] = molecular target: Neu5Ac(a2-3)Gal(b1-4)GlcNAc(b1-2)Man(a1-3)[Neu5Ac(a2-3)Gal(b1-4)GlcNAc(b1-2)Man(a1-6)]Man(b1-4)GlcNAc(b1-4)[Fuc(a1-6)]GlcNAc
# Outline: as §1
binder,measurement,setting,value
KILRGVCKKIMRTFLRRISKKILTGKK [C7A (Sus scrofa)],glycan array binding signal (z-score),[1],1.28
same,glycan array binding signal (z-score),[2],0.545
same,glycan array binding signal (z-score),[3],-1.57
same,glycan array binding signal (z-score),[4],0.071
same,glycan array binding signal (z-score),[5],1.01
same,glycan array binding signal (z-score),[6],-1.34
same,glycan array binding signal (z-score),[7],1.14
same,glycan array binding signal (z-score),[8],-2.25
same,glycan array binding signal (z-score),[9],-1.45
same,glycan array binding signal (z-score),[10],-1.61
same,glycan array binding signal (z-score),[11],0.024
same,glycan array binding signal (z-score),[12],-2.27
same,glycan array binding signal (z-score),[13],-0.112
same,glycan array binding signal (z-score),[14],1.17
same,glycan array binding signal (z-score),[15],0.764
same,glycan array binding signal (z-score),[16],0.585
same,glycan array binding signal (z-score),[17],-1.4
same,glycan array binding signal (z-score),[18],1.28
same,glycan array binding signal (z-score),[19],-0.566
same,glycan array binding signal (z-score),[20],-0.065
same,glycan array binding signal (z-score),[21],-0.219
same,glycan array binding signal (z-score),[22],-0.45
same,glycan array binding signal (z-score),[23],-0.482
same,glycan array binding signal (z-score),[24],-0.224
same,glycan array binding signal (z-score),[25],-0.285
same,glycan array binding signal (z-score),[26],0.404
same,glycan array binding signal (z-score),[27],-0.925
same,glycan array binding signal (z-score),[28],1.17
same,glycan array binding signal (z-score),[29],-0.201
same,glycan array binding signal (z-score),[30],-0.478
same,glycan array binding signal (z-score),[31],1.04
same,glycan array binding signal (z-score),[32],0.216
same,glycan array binding signal (z-score),[33],-0.465
same,glycan array binding signal (z-score),[34],-1.49
same,glycan array binding signal (z-score),[35],0.661
same,glycan array binding signal (z-score),[36],0.309
same,glycan array binding signal (z-score),[37],0.978
same,glycan array binding signal (z-score),[38],1.71
same,glycan array binding signal (z-score),[39],2.06
same,glycan array binding signal (z-score),[40],1.71
same,glycan array binding signal (z-score),[41],-0.097
same,glycan array binding signal (z-score),[42],0.741
same,glycan array binding signal (z-score),[43],0.502
same,glycan array binding signal (z-score),[44],0.8
same,glycan array binding signal (z-score),[45],-0.339
same,glycan array binding signal (z-score),[46],-0.761
same,glycan array binding signal (z-score),[47],1.16
same,glycan array binding signal (z-score),[48],0.135
same,glycan array binding signal (z-score),[49],-0.603
same,glycan array binding signal (z-score),[50],0.786
same,glycan array binding signal (z-score),[51],0.307
same,glycan array binding signal (z-score),[52],-0.248
same,glycan array binding signal (z-score),[53],1.41

# Part of the list above, tab-delimited.
binder	measurement	setting	value
KILRGVCKKIMRTFLRRISKKILTGKK [C7A (Sus scrofa)]	glycan array binding signal (z-score)	[13]	-0.112
same	glycan array binding signal (z-score)	[29]	-0.201
